Hit rate of the full screen: of about 220,000 compounds, about 2,400 (1.1%) were called active. The inconclusive results got no clear call from the source; some entries with a clear call stand among them for comparison. Calls come from the whole dose curve; as a rule, active = well fitted inhibition curve with a large enough effect; inconclusive = small, poorly fitted or top-dose-only effect, or effect the other way; inactive = no such curve, though single readings can be large or run the other way. Where the call is inconclusive, the potency comes from a doubtful curve fit.
assay: qHTS Multiplex Assay to Identify Dual Action Probes in a Cell Model of Huntington: Aggregate Formation (GFP); details: PC12 HttQ103-GFP aggregates, Acumen cytometry, 40 h; activity change, negative = inhibition: at 46.1 µM (top of the series) unless noted; note: nearly all actives have a fitted effect of over 60% in size
Summary of the method: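 Multiplexed with ATP-based cell death, this channel scores GFP aggregates in PC12 cells expressing inducible HTTex1-Q103-GFP. Induction used 100 nM tebufenozide; compounds were tested in concentration series.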
% is set by controls: 0 for no effect and ±100 for the full control effect; potency is the fitted concentration of half-maximal effect.

| Compound | Potency | activity change, negative = inhibition |
| --- | --- | --- |
| CC(C)(C)c1cc(CSC(=S)NC2CCS(=O)(=O)C2)c(Br)c(C(C)(C)C)c1 (configuration not stated) | inconclusive: 22.4 µM [inhibitor, single point] |  |
| OC(COC(c1ccc(F)cc1)c1ccc(F)cc1)CN1CCc2ccccc2C1 (configuration not stated) | inconclusive: 35.5 µM [inhibitor, single point] |  |
| CCN(Cc1ccccc1)C(c1ccc(C)cc1)c1nnnn1C(C)(C)CC (configuration not stated) | inconclusive: 35.5 µM [inhibitor, single point] |  |
| Cc1ccc(-n2ccc(-c3nn(-c4ccccc4)ccc3=O)n2)cc1 | inconclusive: 35.5 µM [inhibitor, single point] |  |
| CCOC(=O)CN(C(=O)CSc1nnc(-c2cccc(OC)c2)o1)c1ccc(F)cc1 | inconclusive: 10 µM [activator, partial curve] |  |
| O=[N+]([O-])c1ccc(N/N=C/c2sc(N3CCOCC3)nc2-c2ccccc2)c(S(=O)(=O)Nc2ccccc2Cl)c1 | inconclusive: 3.98 µM [inhibitor, single point] |  |
| CC(C)CCn1c(=O)c2ccccc2n2c(CN(C)Cc3ccccc3)nnc12 | inconclusive: 35.5 µM [inhibitor, single point] |  |
| Cc1ccc(Cc2nnc3n(-c4ccccc4)nc(C(=O)c4ccccc4)n3c2=O)cc1 | inconclusive: 25.1 µM [inhibitor, single point] |  |
| CCC(=O)Nc1ccc(N2CCCCC2)cc1 | inconclusive: 35.5 µM [activator, single point] |  |
| Cc1nc(C)c(-c2csc(NCc3ccccc3)n2)s1 | inconclusive: 5.62 µM [inhibitor, single point] |  |
| O=C(COC(=O)c1cccc(S(=O)(=O)N2CCCC2)c1)NCc1ccccc1 |  | inactive: 3.26% |
| CCSc1ccccc1C(=O)n1nnc2ccccc21 | inconclusive: 11.2 µM [activator, single point] |  |
| O=C(c1ccccc1[N+](=O)[O-])N1CCC(Cc2ccccc2)CC1 | inconclusive: 1.41 µM [inhibitor, partial curve] |  |
| CC(C)CCNC(=O)CCCOc1cc(=O)n(C)c2ccccc12 | inconclusive: 1.12 µM [activator, full curve] |  |
| Cn1c(N2CCOCC2)c(/C=N/OC(=O)c2ccc(F)cc2)c2ccccc21 | inconclusive: 0.562 µM [inhibitor, full curve, poor fit] |  |
| CC1CCCCN1C(=O)c1cc(-c2ccc(Cl)c(Cl)c2)on1 (configuration not stated) | inconclusive: 15.8 µM [inhibitor, single point] |  |
| O=C(CSc1c2c(nc3ccc(Cl)cc13)CCCC2)NCc1ccco1 | inconclusive: 3.55 µM [activator, single point] |  |
| O=S(=O)(c1ccc(F)cc1)n1ccc(-c2cccc(OCc3c(F)cccc3Cl)c2)n1 | inconclusive: 0.794 µM [inhibitor, single point] |  |
| O=c1c2ccccc2nc(/C=C/c2ccc([N+](=O)[O-])cc2)n1CCCO | inconclusive: 11.2 µM [activator, single point] |  |
| CCOc1ccc(N2C(=O)c3cccnc3C2Nc2ccc(Cl)cc2)cc1 (configuration not stated) |  | inactive: 13.2% |
| Cc1cccc(CC(Cc2nc3ccccc3[nH]2)c2nc3ccccc3[nH]2)c1 (configuration not stated) | inconclusive: 12.6 µM [inhibitor, partial curve] |  |

Part of the list above, comma-delimited.
Compound,Potency,"activity change, negative = inhibition"
Cc1ccc(-n2ccc(-c3nn(-c4ccccc4)ccc3=O)n2)cc1,"inconclusive: 35.5 µM [inhibitor, single point]",
Cc1nc(C)c(-c2csc(NCc3ccccc3)n2)s1,"inconclusive: 5.62 µM [inhibitor, single point]",
CCOc1ccc(N2C(=O)c3cccnc3C2Nc2ccc(Cl)cc2)cc1 (configuration not stated),,inactive: 13.2%

Remaining list, next part

| Compound | Potency | activity change, negative = inhibition |
| --- | --- | --- |
| O=C(OCC(=O)C12CC3CC(CC(C3)C1)C2)c1cccnc1Cl |  | inactive: -1.51% |
| COc1ccccc1/C=N/NC(=O)C(C)Cn1cnc2ccccc21 (configuration not stated) |  | inactive: 1.56% |
| C/C(=N\NC(=O)c1cccc(Cl)c1)C1C(=O)c2ccccc2C1=O | inconclusive: 5.62 µM [inhibitor, single point] |  |
| O=C(CCn1c(=S)[nH]c2ccccc2c1=O)N1CCOCC1 |  | inactive: -12.5% |
| O=C(CN1CCN(c2ccc(Cl)cc2)CC1)Nc1ccc(F)cc1 | inconclusive: 0.562 µM [inhibitor, full curve, poor fit] |  |
| COc1ccc(S(=O)(=O)N(CC(=O)Nc2cccnc2)c2ccccc2OC)cc1 | inconclusive: 35.5 µM [inhibitor, single point] |  |
| Cc1cc(C)cc(Oc2nc3c(C)cccn3c(=O)c2/C=C(\C#N)C(=O)NC2CCS(=O)(=O)C2)c1 (configuration not stated) | inconclusive: 35.5 µM [inhibitor, single point] |  |
| CCOc1cc2[nH]c(=S)n(CCCOC)c(=O)c2cc1OCC | active: 3.98 µM |  |
| COc1cc(OC)cc(-c2nnc(SCc3c(F)cccc3Cl)o2)c1 | inconclusive: 17.8 µM [inhibitor, single point] |  |
| NC(=O)c1cc(N)ccc1N1CCCCC1 | inconclusive: 3.16 µM [activator, single point] |  |
| CCc1cc2c(=O)c(-c3nc4ccccc4n3C)c(C(C)C)oc2c(CN2CCN(C)CC2)c1O | inconclusive: 10 µM [inhibitor, partial curve] |  |
| CCCC(C(=O)NC1CCCC1)N(C(=O)Cn1nnc(-c2ccc(C)o2)n1)C1CCCC1 (configuration not stated) |  | inactive: 16% |
| CCc1ccc(NC(=O)CSCCO)cc1 |  | inactive: 7.8% |
| Cc1ccccc1C(=O)c1ccc2c(c1)n(C)c(=O)n2C | inconclusive: 2.51 µM [activator, partial curve] |  |
| O=C(CN1C(=O)c2cccc3cccc(c23)C1=O)N1CCN(Cc2ccc3c(c2)OCO3)CC1 | active: 17.8 µM |  |
| CN(C)CCN(C)Cc1ccccc1Sc1cccc2ccccc12 |  | inactive: 13.8% |
| O=C(Nc1ccc(S(=O)(=O)C(F)F)cc1)c1cccc(S(=O)(=O)N2CCOCC2)c1 | inconclusive: 20 µM [inhibitor, partial curve, poor fit] |  |
| CCCCN(C)S(=O)(=O)c1ccc(C(=O)Nc2nnc(C3=COCCO3)o2)cc1 | inconclusive: 35.5 µM [inhibitor, single point] |  |
| O=C(CSc1ccc(-c2ccccn2)nn1)N1CCc2ccccc21 | inconclusive: 35.5 µM [inhibitor, single point] |  |
| COCCN(Cc1cc2c(C)cc(C)cc2nc1Cl)C(=O)c1ccccc1F | inconclusive: 6.31 µM [inhibitor, partial curve] |  |
| O=C(/C=C/c1ccc(S(=O)(=O)NCc2ccco2)cc1)NCc1cccc(Cl)c1 | inconclusive: 11.2 µM [activator, partial curve] |  |

— PubChem BioAssay AID1688 (National Center for Advancing Translational Sciences (NCATS), 2009)
